The text below walks through data of PubChem BioAssay AID1347423 (Functional Genomics Laboratory (NCATS/FGL), 2020).

About 210 (0.4%) of roughly 52,000 sequences were called active.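 The calls were made as follows: active = gene whose silencing raises cell survival under the drug, median off-target-corrected z-score across its silencing RNAs 2 or more; inactive = the rest.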 Some of the results follow.

This assay is described as follows: Resistance to Poly (ADP-Ribose) Polymerase inhibitor: Gene Identification via Genome-wide siRNA Screen. The settings on record: mouse BRCA2 R2336H ES cells, olaparib, CellTiter-Glo viability; stronger effect = higher value. A digest of the protocol:
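Genome-wide siRNA screen (3 siRNAs/gene, 20 nM) in mouse ES cells carrying hypomorphic BRCA2 R2336H; olaparib 500 nM added 48 h post-transfection, CellTiter-Glo viability 72 h later. Normalized to plate-median negative control; MAD z-scores, gene median, seed-adjusted.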
A general note: In ATP-based viability assays light output follows the ATP content of the culture.
GGUGUUUGACACUCAAGCATT against V1rg6: the z-score is inactive: 1.69. Consider GCCACACACGAUUUCAAGUTT against Hist1h3a, for which the z-score was inactive: 0.669. Turning to GGUAUGCGAUCAAACUUUUTT against Ttr, the z-score is inactive: 0.647. On to “GGACACUUGCUCGACUUCATT against 4732427B05”, for which the z-score is inactive: -3.46. For GGAACUGGAUGAAUCAAAUTT against Ehbp1, the z-score was inactive: -0.00833. Next, “GGCUGUCUCCGAACACUAUTT against 1300006C06Rik”: inactive: 0.277.

On to GGAUGUCUUUCCUACACGUTT against Mobkl2c, for which the z-score is inactive: 0.014. Turning to GGGAAAUUUACAGAAAGUGTT against Igtp, the z-score is inactive: 1.05.

Consider UGUGCCCUAUAGAACCUGUTT against Krtap13-1, for which the z-score is inactive: 0.606.

Take GGGCAGGUUGUCUUUCUACTT against Ppap2a: the z-score was inactive: -0.428.

Consider GGAGCUAAAAACUUGUAUATT against Rpl23, for which the z-score was inactive: -3.35. On to CGACUCCCACCUUUAGGAGTT against Nkx2-5, for which the z-score is inactive: -0.695. Turning to CGAAACACCAGAUGUAUUCTT against Gck, the z-score is inactive: 1.57. With UUGCUAUAAGGGCAUGGAATT against LOC434448, the z-score is inactive: 1.65. For “GGUUUUGGGAAGUUAUUAATT against D16Bwg1547e”, the z-score was inactive: 0.245.

For GGUAGAGGCAGUCAUGACATT against Abcg5, the z-score was inactive: -0.172.

Consider GGAAGAGAAGAAGGAACUUTT against Ada, for which the z-score is inactive: 2.4. Take GGUAUCCUGUCAUCAUGAGTT against Olfr272: the z-score is inactive: 1.46. For GCAAAUACCUGUUGAAUAATT against Timd4 the value was inactive: -0.577. Next, “GGAAUACAGAUUUUUCAGATT against 4930488L10Rik”: inactive: 0.839; GCGAAAAGUCCACCACAUATT against Cyp51: inactive: -0.714; “GGAAACGAUAGCCAAUAUUTT against 1700010M22Rik”: inactive: -0.968. As for GGCUGUCAAGAAGCACAUCTT against Inhba, the z-score was inactive: -0.00508. For GGAAUAAACCUUGUGCAGUTT against Polh, the z-score was inactive: 0.439.

With GCUUGUUUGUUAGAGCUAGTT against Gad1, the z-score is inactive: 0.191.

For GCCACUCAGAGUGUGGAGUTT against Ddx20, the z-score is inactive: -0.049. Regarding GGCAAUCCAUUUCUCAGUCTT against Tmprss5, the z-score was inactive: -0.137. For CCAGCGGGAGACUUACGAATT against LOC380969, the z-score was inactive: 0.188. As for GGAAACCUGCUCAUAGUGGTT against Olfr1188, the z-score was inactive: -0.295.
